# Taken from: PubChem BioAssay AID1508597 (Cure First, 2020)
# Purpose: 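Knock-downs altering ovarian cancer cell survival with or without PARP inhibitor rucaparib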 (primary screen)
# System: human ovarian carcinoma lines grown from tumours: OCI-P5x (papillary serous) and OCI-C5x (clear cell)
# Reagents: siRNA pool against human genes, 1.25 pmol siRNA per well
# Time to read-out: 72 h or 96 h, depending on the cell culture
# Challenge: rucaparib 20 µM (about IC30) or vehicle, present until read-out
# Rucaparib or vehicle: Rucaparib
# Cell line: OCI-P5x (serous)
# Detection: 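ATP luminescence measured at 72 or 96 h according to the culture, then normalised and expressed as percent viability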
# Direction: viability, normalised: higher = more viable cells remaining
# Call rule: 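a well counts as a hit if its normalised viability is under 80 percent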
# Calls: active = viability under 80%; inactive = viability 80% or more
# Shown is an unselected part of the about 2,100 reagents, under one of the conditions tested. 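Calls flag viability under 80% in either arm, not effects specific to rucaparib; the reference for percent is not stated.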 Some reagents were tested in more than one well and are listed for each. The record does not give: the 100% reference.
gene symbol,technical replicate,"viability, normalised (%)",Call
BTK (GeneID 695),1,83,inactive
BTK (GeneID 695),1,74.5,active
BTK (GeneID 695),2,76.6,active
BTK (GeneID 695),2,67.2,active
BTK (GeneID 695),3,70.7,active
BTK (GeneID 695),3,70.5,active
TNK1 (GeneID 8711),1,98.4,inactive
TNK1 (GeneID 8711),2,88.5,inactive
TNK1 (GeneID 8711),3,101,inactive

Part of the list above, reformatted.
TNK1 (GeneID 8711), technical replicate 1
- viability, normalised (%): 98.4
- Call: inactive

TNK1 (GeneID 8711), technical replicate 2
- viability, normalised (%): 88.5
- Call: inactive

More records follow:
gene symbol,technical replicate,"viability, normalised (%)",Call
DDB2 (GeneID 1643),1,44.2,active
DDB2 (GeneID 1643),1,68.2,active
DDB2 (GeneID 1643),1,71.1,active
DDB2 (GeneID 1643),2,57.6,active
DDB2 (GeneID 1643),2,67.4,active
DDB2 (GeneID 1643),2,58.7,active
DDB2 (GeneID 1643),3,66.2,active
DDB2 (GeneID 1643),3,62.2,active
DDB2 (GeneID 1643),3,82.1,inactive
TAF5L (GeneID 27097),1,57,active
TAF5L (GeneID 27097),2,58.2,active
TAF5L (GeneID 27097),3,67.5,active
CHD7 (GeneID 55636),1,64.5,active
CHD7 (GeneID 55636),2,67.5,active
CHD7 (GeneID 55636),3,69.7,active
